Results on one molecule are retold here after publication doi:10.1101/2021.07.23.453529.

Results are given in words; binding and its absence hold for the method and conditions named. Some results given as binding are weak or reduced against the parent protein; the word gives no strength.

In this assay the target is DARPin (Designed Ankyrin Repeat Protein) of 3TEL-rigid-DARPin. The experiment in a line: crystal structure.

B1: DARPin (Designed Ankyrin Repeat Protein) of 3TEL-rigid-DARPin (designed binder)
chain: DLGKKLLEAARAGQDDEVRILMANGADVNATDNDGYTPLHLAASNGHLEIVEVLLKNGADVNASDLTGITPLHAAAATGHLEIVEVLLKHGADVNAYDNDGHTPLHLAAKYGHLEIVEVLLKHGADVNAQDKFGKTAFDISIDNGNEDLAEILQKLN
With B1, the binding result is listed as “binds weakly”.
